{"source": "PubChem BioAssay AID743456 (Peter MacCallum Cancer Centre, 2014)", "test": "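Identify miRNAs tied to vorinostat resistance or sensitivity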 (primary screen)", "cell system": "human HCT116-VR colon cancer cells, a vorinostat-resistant HCT116 line", "reagents": "miRNA mimic", "time to read-out": "about 3 days from transfection to readout; drug present for the last 24 h", "challenge": "vorinostat at 2.5 µM final for 24 h", "detection": "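Cell viability from CellTiter-Fluor signal and caspase activity from luminescence after 24 h vorinostat at 2.5 µM, given as robust z-scores and as ratios to mock-transfected wells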", "reading the numbers": "viability robust z-score: higher = more viable cells; caspase robust z-score: higher = more caspase activity, more apoptosis", "hit rule": "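Active when viability drops or caspase activity climbs beyond robust z thresholds, with wells of poor cell health excluded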", "note": "Here is one part, drawn at random, of 878 deposited reagents. 27 of all reagents (3.1%) were called active. 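27 mimics are marked active, unlike an earlier stated count of 24; the viability threshold is described inconsistently.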 Further read-outs or replicates are left out here. Reagent sequences are not shown. Not given: the amount of reagent."}
{"miRNA": "hsa-miR-1202", "viability robust z-score": 0.25, "caspase robust z-score": -0.55, "viability hit class": "no change", "caspase hit class": "no change", "outcome": "inactive"}
{"miRNA": "hsa-miR-1974", "viability robust z-score": -0.57, "caspase robust z-score": 2.75, "viability hit class": "no change", "caspase hit class": "no change", "outcome": "inactive"}
{"miRNA": "hsa-miR-1271", "viability robust z-score": -1.7, "caspase robust z-score": 2.64, "viability hit class": "no change", "caspase hit class": "no change", "outcome": "inactive"}
{"miRNA": "hsa-let-7f", "viability robust z-score": 0.62, "caspase robust z-score": -0.1, "viability hit class": "no change", "caspase hit class": "no change", "outcome": "inactive"}
{"miRNA": "hsa-miR-520f", "viability robust z-score": 0.53, "caspase robust z-score": 3.75, "viability hit class": "no change", "caspase hit class": "no change", "outcome": "inactive"}
{"miRNA": "hsa-miR-431*", "viability robust z-score": 0.02, "caspase robust z-score": 1.5, "viability hit class": "no change", "caspase hit class": "no change", "outcome": "inactive"}
{"miRNA": "hsa-miR-494", "viability robust z-score": 0.03, "caspase robust z-score": -0.2, "viability hit class": "no change", "caspase hit class": "no change", "outcome": "inactive"}
{"miRNA": "hsa-miR-653", "viability robust z-score": -0.26, "caspase robust z-score": -0.09, "viability hit class": "no change", "caspase hit class": "no change", "outcome": "inactive"}
{"miRNA": "hsa-miR-613", "viability robust z-score": -0.86, "caspase robust z-score": 1.08, "viability hit class": "no change", "caspase hit class": "no change", "outcome": "inactive"}
{"miRNA": "hsa-miR-1305", "viability robust z-score": 0.65, "caspase robust z-score": -0.46, "viability hit class": "no change", "caspase hit class": "no change", "outcome": "inactive"}
{"miRNA": "hsa-miR-449b", "viability robust z-score": -2.59, "caspase robust z-score": 3.35, "viability hit class": "no change", "caspase hit class": "no change", "outcome": "inactive"}
{"miRNA": "hsa-miR-493*", "viability robust z-score": 0.31, "caspase robust z-score": 2.74, "viability hit class": "no change", "caspase hit class": "no change", "outcome": "inactive"}
{"miRNA": "hsa-miR-147", "viability robust z-score": -1, "caspase robust z-score": -0.28, "viability hit class": "no change", "caspase hit class": "no change", "outcome": "inactive"}
{"miRNA": "hsa-miR-1825", "viability robust z-score": 1.02, "caspase robust z-score": -0.42, "viability hit class": "no change", "caspase hit class": "no change", "outcome": "inactive"}
{"miRNA": "hsa-miR-888*", "viability robust z-score": -1.8, "caspase robust z-score": 3.4, "viability hit class": "no change", "caspase hit class": "no change", "outcome": "inactive"}
{"miRNA": "hsa-miR-889", "viability robust z-score": 0.12, "caspase robust z-score": -0.72, "viability hit class": "no change", "caspase hit class": "no change", "outcome": "inactive"}
{"miRNA": "hsa-miR-502-5p", "viability robust z-score": 0.8, "caspase robust z-score": -0.65, "viability hit class": "no change", "caspase hit class": "no change", "outcome": "inactive"}
{"miRNA": "hsa-miR-513c", "viability robust z-score": 0.92, "caspase robust z-score": 0.62, "viability hit class": "no change", "caspase hit class": "no change", "outcome": "inactive"}
{"miRNA": "hsa-miR-590-5p", "viability robust z-score": 0.37, "caspase robust z-score": -0.66, "viability hit class": "no change", "caspase hit class": "no change", "outcome": "inactive"}
{"miRNA": "hsa-miR-502-3p", "viability robust z-score": -1.15, "caspase robust z-score": 0.32, "viability hit class": "no change", "caspase hit class": "no change", "outcome": "inactive"}
{"miRNA": "hsa-miR-936", "viability robust z-score": -0.29, "caspase robust z-score": 0.44, "viability hit class": "no change", "caspase hit class": "no change", "outcome": "inactive"}
{"miRNA": "hsa-miR-492", "viability robust z-score": -1.05, "caspase robust z-score": -0.9, "viability hit class": "no change", "caspase hit class": "no change", "outcome": "inactive"}
{"miRNA": "hsa-miR-199a-3p", "viability robust z-score": -0.92, "caspase robust z-score": 0.6, "viability hit class": "no change", "caspase hit class": "no change", "outcome": "inactive"}
